According to PubChem BioAssay AID250 (DTP/NCI, 2004):
The list does not hold the whole screen: it gathers some chemical classes. Not every dose and run of a compound is shown. T/C gives the treated animals as a percentage of the vehicle group. Some doses have a count of surviving animals in place of a T/C: the source holds a T/C of zero for them, seemingly a mark for toxic or unscored doses. Some doses without a T/C left all or most animals alive at the check, yet need not have been tolerated: the source hardly ever lists a survival T/C far under the control, and the zero likely stands for such cases as well. For part of these data: Survivors were counted at the toxicity check, usually on the fifth day, unless a day is given; later deaths do not show. Schedules are NCI's codes, taken here to give the interval after Q, in days (D) or hours (H), and the number of doses after X. Some schedules carry Z or #; the key to these is not given. For survival time, this PubChem deposit counts one and a half times the control or more as active, and values a quarter to a half above the control carry no call in these data; other NCI protocols may use other cut-offs. Some T/C values carry the count of animals alive at the toxicity check (mostly the fifth day); where neither a count nor a note follows, no animal had died by that day. Some entries were tested several times; the results are listed from low to high.

Columns and labels:
[1] = system: BDF1 mice, L1210 leukemia sc; assay: NCI In Vivo Anticancer Drug Screen. Data for tumor model L1210 Leukemia (subcutaneous) in B6D2F1 (BDF1) mice; details: T/C endpoint: median survival time, higher T/C = longer survival
Procedure: (§1) The antitumor activity of compounds was measured in mice bearing transplantable tumors. Survival or tumor size were measured and the results are expressed as the measurement made in the treated group (T) divided by the measurement made in the vehicle treated control group (C). The tumor model used in this assay is L1210 Leukemia (subcutaneous) in B6D2F1 (BDF1) mice

[2] = system: BDF1 mice, L1210 leukemia sc, survival T/C; assay: as above; details: T/C endpoint: median survival time, higher T/C = longer survival
Procedure: as §1

[3] = dose: 14.0 mg/kg/injection, schedule: Q01DX Z (sc), vehicle: saline
[4] = dose: 23.0 mg/kg/injection, schedule: Q01DX Z (sc), vehicle: saline
[5] = dose: 39.0 mg/kg/injection, schedule: Q01DX Z (sc), vehicle: saline
[6] = dose: 65.0 mg/kg/injection, schedule: Q01DX Z (sc), vehicle: saline
[7] = dose: 108.0 mg/kg/injection, schedule: Q01DX Z (sc), vehicle: saline
[8] = dose: 1.8 mg/kg/injection, schedule: Q01DX Z (sc), vehicle: saline
[9] = dose: 3.0 mg/kg/injection, schedule: Q01DX Z (sc), vehicle: saline
[10] = dose: 5.0 mg/kg/injection, schedule: Q01DX Z (sc), vehicle: saline
[11] = dose: 8.4 mg/kg/injection, schedule: Q01DX Z (sc), vehicle: saline

O[C@H](CNCCCl)[C@@H](O)CNCCCl
T/C [1, 3]: 147 % of control [8 of 10 alive] | T/C [1, 4]: 130 % of control [9 of 10 alive] | T/C [1, 5]: 136 % of control | T/C [1, 6]: 130 and 136 % of control | T/C [1, 7]: 126 % of control | T/C [2, 8]: 100 % of control [9 of 10 alive] | T/C [2, 9]: 100 % of control | survivor count [2, 10]: 6 of 10 | T/C [2, 11]: 100 and 115 % of control [7 of 10 alive] | T/C [2, 3]: 110 % of control [9 of 10 alive] | T/C [2, 4]: 168 % of control [9 of 10 alive] | T/C [2, 5]: 165 % of control | T/C [2, 7]: 120 % of control

NC1CCCCC1.O=P(O)(NCCCO)N(CCCl)CCCl
T/C ([1]; dose: 300.0 mg/kg/injection, schedule: Q04DX003 (sc), vehicle: steroid suspending solution): 133 % of control | T/C ([1]; dose: 500.0 mg/kg/injection, schedule: Q01DX001 (ip), vehicle: steroid suspending solution): 138 % of control | T/C ([2]; dose: 108.0 mg/kg/injection, schedule: Q04DX003 (ip), vehicle: steroid suspending solution): 111 % of control | T/C ([2]; dose: 108.0 mg/kg/injection, schedule: Q04DX003 (sc), vehicle: steroid suspending solution): 111 % of control | T/C ([2]; dose: 180.0 mg/kg/injection, schedule: Q01DX001 (ip), vehicle: steroid suspending solution): 111 % of control | T/C ([2]; dose: 180.0 mg/kg/injection, schedule: Q01DX001 (sc), vehicle: steroid suspending solution): 111 % of control | T/C ([2]; dose: 180.0 mg/kg/injection, schedule: Q04DX003 (ip), vehicle: steroid suspending solution): 122 % of control | T/C ([2]; dose: 180.0 mg/kg/injection, schedule: Q04DX003 (sc), vehicle: steroid suspending solution): 111 % of control | T/C ([2]; dose: 300.0 mg/kg/injection, schedule: Q01DX001 (ip), vehicle: steroid suspending solution): 122 % of control | T/C ([2]; dose: 300.0 mg/kg/injection, schedule: Q01DX001 (sc), vehicle: steroid suspending solution): 111 % of control | T/C ([2]; dose: 300.0 mg/kg/injection, schedule: Q04DX003 (ip), vehicle: steroid suspending solution): 161 % of control | T/C ([2]; dose: 500.0 mg/kg/injection, schedule: Q01DX001 (sc), vehicle: steroid suspending solution): 88 % of control | T/C ([2]; dose: 500.0 mg/kg/injection, schedule: Q04DX003 (ip), vehicle: steroid suspending solution): 100 % of control | T/C ([2]; dose: 500.0 mg/kg/injection, schedule: Q04DX003 (sc), vehicle: steroid suspending solution): 88 % of control [7 of 8 alive] | survivor count ([2]; dose: 833.0 mg/kg/injection, schedule: Q01DX001 (ip), vehicle: steroid suspending solution): 7 of 8 | survivor count ([2]; dose: 833.0 mg/kg/injection, schedule: Q01DX001 (sc), vehicle: steroid suspending solution): 2 of 8

OC(CNCCCl)C(O)C(O)C(O)CNCCCl (stereo not drawn)
T/C ([1]; dose: 39.0 mg/kg/injection, schedule: Q01DX008 (sc), vehicle: saline): 130 % of control | T/C ([1]; dose: 64.8 mg/kg/injection, schedule: Q01DX Z (sc), vehicle: saline): 127 % of control | T/C ([1]; dose: 65.0 mg/kg/injection, schedule: Q01DX008 (sc), vehicle: saline): 135 % of control [7 of 10 alive] | T/C ([2]; dose: 1.81 mg/kg/injection, schedule: Q01DX Z (sc), vehicle: saline): 100 % of control | T/C ([2]; dose: 3.02 mg/kg/injection, schedule: Q01DX Z (sc), vehicle: saline): 100 % of control | T/C ([2]; dose: 5.04 mg/kg/injection, schedule: Q01DX Z (sc), vehicle: saline): 95 % of control | T/C [2, 11]: 100 % of control | T/C ([2]; dose: 14.0 mg/kg/injection, schedule: Q01DX008 (sc), vehicle: saline): 100 % of control [7 of 10 alive] | T/C [2, 3]: 95 % of control | T/C ([2]; dose: 23.0 mg/kg/injection, schedule: Q01DX008 (sc), vehicle: saline): 110 % of control [8 of 10 alive] | T/C ([2]; dose: 23.3 mg/kg/injection, schedule: Q01DX Z (sc), vehicle: saline): 100 % of control | T/C ([2]; dose: 38.9 mg/kg/injection, schedule: Q01DX Z (sc), vehicle: saline): 109 % of control | T/C ([2]; dose: 108.0 mg/kg/injection, schedule: Q01DX008 (sc), vehicle: saline): 120 % of control [9 of 10 alive] | T/C [2, 7]: 118 % of control | T/C ([2]; dose: 180.0 mg/kg/injection, schedule: Q01DX008 (sc), vehicle: saline): 110 % of control [7 of 10 alive] | survivor count ([2]; dose: 300.0 mg/kg/injection, schedule: Q01DX008 (sc), vehicle: saline): 3 of 10

Cc1[nH]c(=O)[nH]c(=O)c1N(CCCl)CCCl
T/C [1, 3]: 140 % of control | T/C ([2]; dose: 0.05 mg/kg/injection, schedule: Q01DX Z (sc), vehicle: saline): 100 % of control | T/C ([2]; dose: 0.08 mg/kg/injection, schedule: Q01DX Z (sc), vehicle: saline): 105 % of control [8 of 10 alive] | T/C ([2]; dose: 0.14 mg/kg/injection, schedule: Q01DX Z (sc), vehicle: saline): 100 % of control [8 of 10 alive] | T/C ([2]; dose: 0.23 mg/kg/injection, schedule: Q01DX Z (sc), vehicle: saline): 100 % of control [8 of 10 alive] | T/C ([2]; dose: 0.39 mg/kg/injection, schedule: Q01DX Z (sc), vehicle: saline): 105 % of control | T/C ([2]; dose: 0.65 mg/kg/injection, schedule: Q01DX Z (sc), vehicle: saline): 100 % of control [9 of 10 alive] | T/C ([2]; dose: 1.08 mg/kg/injection, schedule: Q01DX Z (sc), vehicle: saline): 110 % of control [8 of 10 alive] | T/C [2, 8]: 100 % of control [9 of 10 alive] | T/C [2, 9]: 100 % of control | T/C [2, 10]: 100 % of control [8 of 10 alive] | T/C [2, 11]: 104 and 120 % of control | T/C [2, 3]: 109 % of control [9 of 10 alive] | T/C [2, 4]: 118 and 120 % of control | T/C [2, 5]: 118 % of control | T/C [2, 6]: 109 % of control

CN(N=O)C(=N)N[N+](=O)[O-]
T/C ([2]; dose: 2.5 mg/kg/injection, schedule: Q01DX009 (ip), vehicle: saline): 95 % of control | T/C ([2]; dose: 5.0 mg/kg/injection, schedule: Q01DX009 (ip), vehicle: saline): 100 % of control | T/C ([2]; dose: 10.0 mg/kg/injection, schedule: Q01DX009 (ip), vehicle: saline): 100 % of control | T/C [2, 3]: 110 % of control | T/C ([2]; dose: 20.0 mg/kg/injection, schedule: Q01DX009 (ip), vehicle: saline): 100 % of control | T/C [2, 4]: 100 % of control | T/C [2, 5]: 100 % of control | survivor count ([2]; dose: 40.0 mg/kg/injection, schedule: Q01DX009 (ip), vehicle: saline): 8 of 8 | T/C [2, 6]: 110 % of control | survivor count ([2]; dose: 80.0 mg/kg/injection, schedule: Q01DX009 (ip), vehicle: saline): 4 of 8 | T/C [2, 7]: 110 % of control | T/C ([2]; dose: 180.0 mg/kg/injection, schedule: Q01DX Z (sc), vehicle: saline): 100 % of control [8 of 10 alive]

CCOC(=O)COc1ccc(N(CCCl)CCCl)cc1
T/C ([2]; dose: 5.0 mg/kg/injection, schedule: Q01DX Z (sc), vehicle: carboxymethylcellulose (CMC)): 100 % of control | T/C ([2]; dose: 10.0 mg/kg/injection, schedule: Q01DX Z (sc), vehicle: carboxymethylcellulose (CMC)): 100 % of control | T/C ([2]; dose: 15.0 mg/kg/injection, schedule: Q01DX Z (sc), vehicle: carboxymethylcellulose (CMC)): 94 % of control | T/C ([2]; dose: 20.0 mg/kg/injection, schedule: Q01DX Z (sc), vehicle: carboxymethylcellulose (CMC)): 100 % of control

CCN(CCCl)Cc1ccccc1
T/C [2, 11]: 100 % of control
